Laboratory results: PubChem BioAssay AID1347076 (National Center for Advancing Translational Sciences (NCATS), 2019)
About 13,000 (3.2%) of roughly 400,000 compounds were called active. Inconclusive results, whose numbers are uncertain, are shown with a selection of clear calls. Calls follow the shape of the dose curve; as a rule, active = well fitted cell-killing curve with a large enough effect; inconclusive = small, poorly fitted or top-dose-only effect, or effect the other way; inactive = flat fitted curve, though single readings scatter. Potencies of inconclusive entries are doubtful fits and often do not repeat.
% is scaled to controls: 0 for no effect and ±100 for the full control effect; potency is read from the fitted curve at half-maximal effect.

Experiment: qHTS assay for MDR1-selective chemotherapeutics: Primary screen using the drug-selected MDR subline cells KB-V1; also: nearly all actives have a fitted effect of over 60% in size
Conditions: KB-V1 MDR cells viability, CellTiter-Glo, 72 h; activity change, negative = cytotoxicity: at 46.1 µM (top of the series)
Procedure, shortened: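 Cytotoxicity toward P-gp-expressing KB-V1 cells was determined as loss of CellTiter-Glo luminescence after 72 h at 37 degrees C. Compounds were tested in quantitative HTS format across a concentration range, with curves fitted to normalized data.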
For `COCCCNC(=O)c1sc2ncn(CC(=O)Nc3ccc(C)c(Cl)c3)c(=O)c2c1C`, the “activity change, negative = cytotoxicity” value was inactive: 8.49%. For `CCCCn1nnnc1C1(C)CCC(=O)N1c1ccc(N2CCOCC2)cc1` (stereo not drawn), the Potency was inconclusive: 29.1 µM [rising, single point]. In the case of `CCCCCCC(=O)Nc1ccc2nc3c(=O)n(C)c(=O)n(C)c3nc2c1C`, the Potency is reported as inconclusive: 16.4 µM [rising, partial curve]. In the case of `O=C(c1ccco1)n1c(=S)nc2ccccn21`, the “activity change, negative = cytotoxicity” value is reported as inactive: -3.82%. With `CCc1nc(CN(C)C(=O)C2CCC(=O)N(Cc3cccc(F)c3)C2)no1` (stereo not drawn) the “activity change, negative = cytotoxicity” value was inactive: -1.62%. For `CCN(CC)CCNC(=O)c1ccc(NC(=O)/C=C/c2cc(OC)c(OC)c(OC)c2)cc1`, the Potency was inconclusive: 29.1 µM [rising, single point]. For `COc1ccc(C(=O)N[C@H](C(=O)N2CCN(c3ccccc3F)CC2)C(C)C)cc1`, the “activity change, negative = cytotoxicity” value was inactive: -23.6%. With `COc1ccc(N(CC(=O)Nc2ccc3c(c2)OCO3)S(=O)(=O)c2ccc(F)cc2)cc1` the Potency was inconclusive: 2.06 µM [cytotoxic, full curve, poor fit]. With `CCCCn1c(NC(=O)c2ccccc2)nc2ccccc21` the Potency was inconclusive: 29.1 µM [cytotoxic, single point]. With `COc1ccc(NC(=O)CSc2nnc3ccc(-c4ccccn4)nn23)c(OC)c1` the Potency was inconclusive: 8.2 µM [cytotoxic, partial curve, poor fit]. For `Cc1ccc(NC(=O)NCCN2CCCCC2)cc1`, the “activity change, negative = cytotoxicity” value was inactive: 7.78%. In the case of `Cc1nnc(Cc2ccccc2)c2n[nH]c(C)c12`, the “activity change, negative = cytotoxicity” value is reported as inactive: -9.66%. In the case of `O=C(NNc1cc(Cl)cc(Cl)c1)c1cccs1`, the “activity change, negative = cytotoxicity” value is reported as inactive: 10.9%. In the case of `CCN(CC(O)CON=C1c2ccccc2-c2ccccc21)S(=O)(=O)c1ccc(C)cc1` (stereo not drawn), the Potency is reported as active: 18.4 µM. With `CCOC(=O)C1CCN(C(=S)Nc2cccc(C)c2C)CC1` the “activity change, negative = cytotoxicity” value was inactive: -23.9%. With `CCC(=NCc1ccccc1)c1c(C(F)(F)F)[nH]n(-c2nc3ccccc3s2)c1=O` the “activity change, negative = cytotoxicity” value was inactive: 7.6%. With `NC(=O)c1ccc(-n2nnnc2SCC(=O)NC2CCCCC2)cc1` the “activity change, negative = cytotoxicity” value was inactive: 0%. For `O=C(Nc1ccc2c(c1)oc1ccccc12)c1ccc2c(c1)OCO2`, the Potency was inconclusive: 5.17 µM [cytotoxic, full curve, poor fit]. With `COc1cc(OC)cc(C(=O)NC(=S)N2CCCCC2c2cccnc2)c1` (stereo not drawn) the Potency was inconclusive: 7.31 µM [rising, partial curve, poor fit]. With `COc1ccc(C)c2sc(NC(=O)c3ccc(S(=O)(=O)N(C)C)cc3)nc12` the “activity change, negative = cytotoxicity” value was inactive: 24.4%. With `COc1cc(OC)cc(C(=O)NNC(=S)Nc2ccc(S(N)(=O)=O)cc2)c1` the “activity change, negative = cytotoxicity” value was inactive: 4.95%. With `Cc1cccc2cc(CN(C(=O)c3cccc([N+](=O)[O-])c3)C(C)C)c(=O)[nH]c12` the Potency was inconclusive: 25.9 µM [cytotoxic, single point]. For `Cc1cc(Cl)ccc1-n1c(CCC(=O)O)ccc1-c1cccs1`, the Potency was inconclusive: 2.91 µM [rising, full curve]. For `COc1ccc(Br)c(C(=O)N2CCN(S(=O)(=O)/C=C/c3ccccc3)CC2)c1`, the Potency was inconclusive: 6.51 µM [cytotoxic, partial curve, poor fit]. For `COc1ccc(CCNC(=O)COc2ccc(S(=O)(=O)N3CCOCC3)cc2)cc1`, the Potency was inconclusive: 18.4 µM [cytotoxic, single point]. For `Cc1noc(C)c1S(=O)(=O)N1CCCC(C(=O)NCCc2ccc(Cl)cc2)C1` (stereo not drawn), the “activity change, negative = cytotoxicity” value was inactive: 0%. With `CC(C)CN(CC(C)C)C(=O)c1cccc(S(=O)(=O)N2CCc3ccccc32)c1` the Potency was active: 10.3 µM. For `Cn1c(=O)c2c(nc(Sc3ncccn3)n2Cc2ccccc2Cl)n(C)c1=O`, the Potency was active: 23.1 µM. With `Cc1ccnc(NC(=O)Nc2ccc3c(c2)N(C)C(=O)CS3)c1` the Potency was inconclusive: 23.1 µM [cytotoxic, partial curve, poor fit]. In the case of `CS(=O)(=O)N(CC(=O)Nc1ccc2c(c1)OCO2)c1ccc(Cl)cc1`, the Potency is reported as active: 23.1 µM. With `COc1ccc(CN2C(=O)c3ccccc3C2C(=O)NC2CCCC(C)C2C)c(OC)c1` (stereo not drawn) the Potency was inconclusive: 2.59 µM [cytotoxic, full curve]. In the case of `O=C(c1cccc(Cl)c1)N1CCN(S(=O)(=O)c2ccc(Cl)s2)CC1`, the Potency is reported as inconclusive: 23.1 µM [cytotoxic, single point]. With `CCc1c(C)c2ccc(O)c(CN3CCN(c4cc(Cl)ccc4C)CC3)c2oc1=O` the “activity change, negative = cytotoxicity” value was inactive: 2.9%. With `O=C(Nc1cccc(C(F)(F)F)c1)C1CCN(S(=O)(=O)c2cccnc2)CC1` the Potency was inconclusive: 7.31 µM [cytotoxic, partial curve, poor fit]. In the case of `S=C(Nc1nc2c(s1)CCCC2)NC1CC1`, the “activity change, negative = cytotoxicity” value is reported as inactive: 3.17%. In the case of `CCc1ccc(S(=O)(=O)c2nnn3c2nc(N2CCN(c4ccccc4)CC2)c2cc(Cl)ccc23)cc1`, the Potency is reported as inconclusive: 29.1 µM [rising, single point]. For `OCCCn1c(C2CCCN2c2nc(-c3ccc(F)cc3)cs2)nc2cc(C(F)(F)F)ccc21` (stereo not drawn), the “activity change, negative = cytotoxicity” value was inactive: 7.82%. With `O=C(NCCCN1CCOCC1)NC1CCCCC1` the “activity change, negative = cytotoxicity” value was inactive: -15.4%. For `Cc1cc(C)c(C)c(N=Nc2nc3ccccc3n2C)c1C`, the Potency was inconclusive: 18.4 µM [cytotoxic, single point]. With `Cc1ccc(/C=N/Nc2ccc3ccccc3n2)o1` the Potency was active: 8.2 µM. With `CCOC(=O)NC(C(Cl)(Cl)Cl)S(=O)(=O)c1ccccc1` (stereo not drawn) the “activity change, negative = cytotoxicity” value was inactive: -13.8%. For `COc1ccccc1-c1cc(NC=O)c2ncc(-c3ccc(S(C)(=O)=O)cc3)n2c1`, the Potency was active: 16.4 µM. With `COc1ccc(CCNC(=O)c2cc3cc(F)ccc3nc2C)cc1OC` the Potency was inconclusive: 9.2 µM [cytotoxic, partial curve]. With `CC(C)c1csc(CN2CCN(Cc3ccc(F)cc3)C(CCO)C2)n1` (stereo not drawn) the Potency was inconclusive: 29.1 µM [cytotoxic, single point]. With `O=c1c2sc3ccccc3c2n(Cc2cccc(F)c2)c(=O)n1CCc1ccccc1` the “activity change, negative = cytotoxicity” value was inactive: 1.43%. For `O=C(O)c1cccc(Oc2ccccc2[N+](=O)[O-])c1`, the “activity change, negative = cytotoxicity” value was inactive: -8.78%. For `CCCc1cc(=O)oc2c3c(ccc12)OCN(Cc1ccccc1OC)C3`, the Potency was inconclusive: 6.51 µM [cytotoxic, partial curve]. In the case of `CC(=NNC(=S)N1CCCCC1)c1ccccn1`, the Potency is reported as inconclusive: 0.0231 µM [cytotoxic, full curve]. With `O=C(NCc1ccco1)c1ccc(Br)c(S(=O)(=O)N2CCCCC2)c1` the Potency was inconclusive: 13 µM [cytotoxic, partial curve, poor fit]. In the case of `CCC(C(=O)NCCC(C)C)N(Cc1ccccc1Cl)C(=O)c1snc(C(N)=O)c1N` (stereo not drawn), the Potency is reported as inconclusive: 4.11 µM [cytotoxic, full curve, poor fit]. With `Cc1cc(OCC(O)CNC(C)c2ccccc2)ccc1C(C)C` (stereo not drawn) the Potency was active: 16.4 µM. With `Cc1ccc(C2C3=C(CC(C)(C)CC3=O)N=C3c4ccccc4C(=O)C32)cc1` (stereo not drawn) the “activity change, negative = cytotoxicity” value was inactive: -18.2%. For `Cc1cc(C)cc(NC(=O)CSc2nnc(-c3ccccc3C)o2)c1`, the Potency was active: 11.6 µM. With `Cc1c(C(=O)Nc2ccccc2)sc2nc(-c3ccccc3)cn12` the Potency was inconclusive: 20.6 µM [cytotoxic, partial curve]. In the case of `O=c1[nH]c(SCc2nc3ccccc3c(=O)n2-c2ccccc2)nc2ccccc12`, the “activity change, negative = cytotoxicity” value is reported as inactive: -6.06%. With `COc1ccc(N2CCN(C(=O)CCCOc3cc(=O)n(C)c4ccccc34)CC2)cc1` the Potency was active: 8.2 µM. In the case of `c1ccc(-c2nnc3sc(Cc4cccs4)nn23)cc1`, the Potency is reported as inconclusive: 23.1 µM [cytotoxic, partial curve]. For `CC(=O)c1cccc(NC(=O)NC2CCCCC2)c1`, the Potency was inconclusive: 13 µM [cytotoxic, partial curve, poor fit]. With `CN(Cc1cn(-c2ccccc2)nc1-c1ccc(Cl)cc1)C(=O)CCC(=O)O` the Potency was inconclusive: 32.6 µM [rising, single point]. With `Cc1ccc(OCCn2cnc3c2c(=O)n(C)c(=O)n3C)cc1` the Potency was inconclusive: 4.61 µM [cytotoxic, full curve]. In the case of `O=C(Nc1cccc([N+](=O)[O-])c1)c1ccc(CN2CCOCC2)cc1`, the Potency is reported as inconclusive: 14.6 µM [cytotoxic, partial curve]. In the case of `Cc1cc(C)c2nc(SCC(=O)N3CC(=O)Nc4ccccc43)c(C#N)cc2c1`, the Potency is reported as active: 0.731 µM. In the case of `Cc1ccccc1N(C(=O)c1snc(C(N)=O)c1N)C(C(=O)NC1CCCC1)c1ccco1` (stereo not drawn), the Potency is reported as inconclusive: 9.2 µM [cytotoxic, partial curve]. With `Cc1ccc(N(CC(=O)N2CCN(c3cc(C)ccc3C)CC2)S(=O)(=O)c2c(C)nn(C)c2C)cc1` the Potency was inconclusive: 29.1 µM [cytotoxic, partial curve, poor fit]. In the case of `CN(CC(=O)Nc1ccc(F)cc1)C(=O)CSc1nnc(Cc2ccccc2)o1`, the Potency is reported as active: 16.4 µM. With `Cc1n[nH]c(C)c1CCC(=O)N/N=C/c1c[nH]c2ccccc12` the Potency was inconclusive: 4.11 µM [rising, partial curve]. For `CC(C)[C@H](NC(=O)OC(C)(C)C)c1nnc(SCc2cccc(F)c2)o1`, the Potency was active: 13 µM. In the case of `O=[N+]([O-])c1nn(-c2ccccc2)n(O)c1=NC1CCN(Cc2ccccc2)CC1`, the Potency is reported as inconclusive: 11.6 µM [cytotoxic, partial curve]. In the case of `CCCCc1n[nH]c(=S)n1Cc1ccc(C)cc1`, the “activity change, negative = cytotoxicity” value is reported as inactive: -29.8%. In the case of `CCOc1ccc(NS(=O)(=O)c2ccc(NC(=O)c3ccccn3)cc2)cc1`, the Potency is reported as inconclusive: 23.1 µM [cytotoxic, partial curve, poor fit]. In the case of `COc1ccc(-c2cc(C)no2)cc1S(=O)(=O)NCCCN1CCN(c2ccccc2)CC1`, the Potency is reported as inconclusive: 29.1 µM [cytotoxic, single point]. In the case of `COc1ccc(-n2c(C)cc(C(=O)Cn3c(NCCO)nc4ccccc43)c2C)cc1`, the Potency is reported as inconclusive: 29.1 µM [cytotoxic, single point]. For `OC(CNC1CCCCCC1)COc1cccc2ccccc12` (stereo not drawn), the Potency was active: 20.6 µM.
